Experimental data as given in the supplement of paper PMC11006884.
The entries are a selection whose mix differs from that of the whole data set.

The chains behind the UniProt entries cited, without tags or fusion partners. Where a name states a change or a piece, a line headed by the entry shows the natural chain unless it says otherwise.
UniProt P33981: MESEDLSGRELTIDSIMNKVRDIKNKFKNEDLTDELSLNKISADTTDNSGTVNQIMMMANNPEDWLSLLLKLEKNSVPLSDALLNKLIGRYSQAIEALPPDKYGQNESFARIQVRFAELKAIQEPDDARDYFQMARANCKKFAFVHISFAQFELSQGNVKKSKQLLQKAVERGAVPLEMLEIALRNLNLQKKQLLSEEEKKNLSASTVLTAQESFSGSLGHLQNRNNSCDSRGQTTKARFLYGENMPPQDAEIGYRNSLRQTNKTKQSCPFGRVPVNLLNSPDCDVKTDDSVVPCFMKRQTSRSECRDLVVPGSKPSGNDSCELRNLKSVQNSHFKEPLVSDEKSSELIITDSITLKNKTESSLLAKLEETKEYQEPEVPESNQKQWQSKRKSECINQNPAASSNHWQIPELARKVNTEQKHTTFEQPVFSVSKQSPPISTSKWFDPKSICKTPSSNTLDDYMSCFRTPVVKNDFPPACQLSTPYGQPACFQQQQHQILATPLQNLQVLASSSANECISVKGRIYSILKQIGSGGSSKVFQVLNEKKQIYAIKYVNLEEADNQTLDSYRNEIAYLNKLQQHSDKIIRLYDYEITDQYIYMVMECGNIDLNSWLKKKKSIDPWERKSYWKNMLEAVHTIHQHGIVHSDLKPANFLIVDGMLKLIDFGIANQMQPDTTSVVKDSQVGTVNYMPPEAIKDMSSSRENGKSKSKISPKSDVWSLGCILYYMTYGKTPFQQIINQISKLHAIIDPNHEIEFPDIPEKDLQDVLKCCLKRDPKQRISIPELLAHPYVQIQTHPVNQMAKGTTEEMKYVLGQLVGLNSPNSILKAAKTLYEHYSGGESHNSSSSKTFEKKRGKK
UniProt P41252: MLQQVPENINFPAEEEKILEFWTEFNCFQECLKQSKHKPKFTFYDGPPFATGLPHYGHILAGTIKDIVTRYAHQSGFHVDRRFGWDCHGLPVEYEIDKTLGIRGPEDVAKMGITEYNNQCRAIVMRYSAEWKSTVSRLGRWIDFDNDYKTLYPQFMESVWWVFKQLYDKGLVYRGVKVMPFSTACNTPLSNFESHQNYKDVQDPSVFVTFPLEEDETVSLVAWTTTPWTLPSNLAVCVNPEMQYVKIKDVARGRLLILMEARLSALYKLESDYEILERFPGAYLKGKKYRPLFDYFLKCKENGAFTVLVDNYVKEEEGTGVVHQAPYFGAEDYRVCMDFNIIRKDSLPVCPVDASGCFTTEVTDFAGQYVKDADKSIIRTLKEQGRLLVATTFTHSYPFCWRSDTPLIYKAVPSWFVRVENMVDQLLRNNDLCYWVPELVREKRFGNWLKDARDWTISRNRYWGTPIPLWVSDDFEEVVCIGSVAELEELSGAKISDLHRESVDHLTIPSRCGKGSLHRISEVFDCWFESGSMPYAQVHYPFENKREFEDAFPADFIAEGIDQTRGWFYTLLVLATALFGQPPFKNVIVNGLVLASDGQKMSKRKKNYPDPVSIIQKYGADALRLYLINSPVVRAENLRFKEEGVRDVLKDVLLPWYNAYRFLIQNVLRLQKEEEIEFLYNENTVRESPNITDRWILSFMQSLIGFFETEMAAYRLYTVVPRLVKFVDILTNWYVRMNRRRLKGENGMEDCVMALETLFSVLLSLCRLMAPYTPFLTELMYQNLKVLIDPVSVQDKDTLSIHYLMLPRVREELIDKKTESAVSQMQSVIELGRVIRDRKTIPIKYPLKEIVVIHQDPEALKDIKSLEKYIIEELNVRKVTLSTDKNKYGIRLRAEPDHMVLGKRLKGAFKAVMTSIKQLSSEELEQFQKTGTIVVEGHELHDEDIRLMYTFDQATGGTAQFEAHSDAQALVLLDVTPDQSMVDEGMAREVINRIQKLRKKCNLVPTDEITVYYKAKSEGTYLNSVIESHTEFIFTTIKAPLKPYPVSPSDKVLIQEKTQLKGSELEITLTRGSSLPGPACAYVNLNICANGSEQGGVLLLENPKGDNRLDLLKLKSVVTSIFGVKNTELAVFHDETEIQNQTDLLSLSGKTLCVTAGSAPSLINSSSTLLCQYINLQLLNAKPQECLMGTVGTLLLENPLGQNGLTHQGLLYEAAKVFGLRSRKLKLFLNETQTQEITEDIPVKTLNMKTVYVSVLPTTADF
UniProt P31948, whole entry, looked up: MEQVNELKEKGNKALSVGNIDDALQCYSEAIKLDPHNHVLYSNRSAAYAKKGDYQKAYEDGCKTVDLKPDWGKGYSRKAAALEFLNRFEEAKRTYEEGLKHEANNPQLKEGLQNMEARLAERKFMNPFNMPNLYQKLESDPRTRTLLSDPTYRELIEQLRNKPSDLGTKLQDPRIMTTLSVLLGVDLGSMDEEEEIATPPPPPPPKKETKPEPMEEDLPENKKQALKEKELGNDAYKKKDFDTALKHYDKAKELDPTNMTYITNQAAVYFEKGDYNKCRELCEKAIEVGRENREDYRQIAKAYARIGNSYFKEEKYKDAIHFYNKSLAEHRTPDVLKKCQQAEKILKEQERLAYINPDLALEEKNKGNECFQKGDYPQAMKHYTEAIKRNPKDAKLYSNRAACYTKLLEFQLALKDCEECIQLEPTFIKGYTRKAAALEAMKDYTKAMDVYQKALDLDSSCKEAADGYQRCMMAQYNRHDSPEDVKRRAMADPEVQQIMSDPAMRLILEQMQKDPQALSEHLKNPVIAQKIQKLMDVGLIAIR
UniProt P35998: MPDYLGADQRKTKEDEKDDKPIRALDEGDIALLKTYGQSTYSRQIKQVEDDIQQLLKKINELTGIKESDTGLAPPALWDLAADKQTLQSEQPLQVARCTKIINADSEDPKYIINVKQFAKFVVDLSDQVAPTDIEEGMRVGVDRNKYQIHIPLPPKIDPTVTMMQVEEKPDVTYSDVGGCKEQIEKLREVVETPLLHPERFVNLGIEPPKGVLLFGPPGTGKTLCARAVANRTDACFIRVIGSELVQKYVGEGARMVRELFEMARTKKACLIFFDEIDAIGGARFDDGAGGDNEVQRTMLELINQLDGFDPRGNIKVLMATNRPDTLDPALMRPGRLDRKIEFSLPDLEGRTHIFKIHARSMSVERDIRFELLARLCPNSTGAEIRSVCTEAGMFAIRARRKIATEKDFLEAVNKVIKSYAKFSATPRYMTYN
UniProt P33527: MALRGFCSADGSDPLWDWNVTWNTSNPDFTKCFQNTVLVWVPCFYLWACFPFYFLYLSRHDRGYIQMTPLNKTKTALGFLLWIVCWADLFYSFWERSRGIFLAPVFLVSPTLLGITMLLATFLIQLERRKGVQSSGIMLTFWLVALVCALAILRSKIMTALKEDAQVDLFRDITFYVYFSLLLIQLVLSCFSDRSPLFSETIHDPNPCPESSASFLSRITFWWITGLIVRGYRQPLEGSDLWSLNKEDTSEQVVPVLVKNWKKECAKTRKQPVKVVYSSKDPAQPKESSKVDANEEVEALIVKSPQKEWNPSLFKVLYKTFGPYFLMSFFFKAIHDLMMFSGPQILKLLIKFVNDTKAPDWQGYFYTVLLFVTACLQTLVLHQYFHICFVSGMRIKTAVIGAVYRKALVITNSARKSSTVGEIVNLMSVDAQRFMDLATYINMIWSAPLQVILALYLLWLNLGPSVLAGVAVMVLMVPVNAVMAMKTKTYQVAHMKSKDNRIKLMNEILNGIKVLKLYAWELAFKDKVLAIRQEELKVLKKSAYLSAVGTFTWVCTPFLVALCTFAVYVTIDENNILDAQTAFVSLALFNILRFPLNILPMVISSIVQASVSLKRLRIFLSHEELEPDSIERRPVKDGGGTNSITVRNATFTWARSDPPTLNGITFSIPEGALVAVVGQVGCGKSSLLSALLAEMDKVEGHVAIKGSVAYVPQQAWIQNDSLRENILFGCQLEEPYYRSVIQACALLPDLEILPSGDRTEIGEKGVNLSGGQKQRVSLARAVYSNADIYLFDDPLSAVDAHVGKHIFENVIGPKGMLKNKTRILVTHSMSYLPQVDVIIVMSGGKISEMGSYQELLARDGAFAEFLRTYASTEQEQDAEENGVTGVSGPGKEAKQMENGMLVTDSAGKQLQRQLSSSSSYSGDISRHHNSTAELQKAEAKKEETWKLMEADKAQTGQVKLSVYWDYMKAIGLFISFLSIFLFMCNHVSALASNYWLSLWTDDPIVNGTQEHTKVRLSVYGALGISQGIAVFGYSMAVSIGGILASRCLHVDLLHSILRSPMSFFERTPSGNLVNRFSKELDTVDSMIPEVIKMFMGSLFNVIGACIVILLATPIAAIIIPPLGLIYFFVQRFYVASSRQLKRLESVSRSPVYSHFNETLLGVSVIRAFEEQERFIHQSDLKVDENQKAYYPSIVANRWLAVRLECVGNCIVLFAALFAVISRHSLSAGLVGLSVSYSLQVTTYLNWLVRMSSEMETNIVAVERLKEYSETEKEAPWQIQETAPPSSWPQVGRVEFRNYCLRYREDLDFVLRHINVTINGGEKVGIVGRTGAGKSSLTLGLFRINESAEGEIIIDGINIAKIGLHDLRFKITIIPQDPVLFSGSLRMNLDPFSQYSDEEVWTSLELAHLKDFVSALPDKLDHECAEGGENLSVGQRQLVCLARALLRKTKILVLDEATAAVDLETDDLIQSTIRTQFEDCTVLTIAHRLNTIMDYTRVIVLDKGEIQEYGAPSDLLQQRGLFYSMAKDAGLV
UniProt P40926: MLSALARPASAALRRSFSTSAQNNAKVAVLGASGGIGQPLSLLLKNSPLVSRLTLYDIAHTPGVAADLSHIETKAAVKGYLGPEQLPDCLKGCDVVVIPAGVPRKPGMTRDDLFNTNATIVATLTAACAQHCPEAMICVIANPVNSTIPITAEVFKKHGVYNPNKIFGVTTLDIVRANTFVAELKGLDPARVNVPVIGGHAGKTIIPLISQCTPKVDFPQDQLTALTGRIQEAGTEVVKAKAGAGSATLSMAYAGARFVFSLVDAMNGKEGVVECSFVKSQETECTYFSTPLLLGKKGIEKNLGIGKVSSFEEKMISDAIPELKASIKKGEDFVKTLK
UniProt P31939: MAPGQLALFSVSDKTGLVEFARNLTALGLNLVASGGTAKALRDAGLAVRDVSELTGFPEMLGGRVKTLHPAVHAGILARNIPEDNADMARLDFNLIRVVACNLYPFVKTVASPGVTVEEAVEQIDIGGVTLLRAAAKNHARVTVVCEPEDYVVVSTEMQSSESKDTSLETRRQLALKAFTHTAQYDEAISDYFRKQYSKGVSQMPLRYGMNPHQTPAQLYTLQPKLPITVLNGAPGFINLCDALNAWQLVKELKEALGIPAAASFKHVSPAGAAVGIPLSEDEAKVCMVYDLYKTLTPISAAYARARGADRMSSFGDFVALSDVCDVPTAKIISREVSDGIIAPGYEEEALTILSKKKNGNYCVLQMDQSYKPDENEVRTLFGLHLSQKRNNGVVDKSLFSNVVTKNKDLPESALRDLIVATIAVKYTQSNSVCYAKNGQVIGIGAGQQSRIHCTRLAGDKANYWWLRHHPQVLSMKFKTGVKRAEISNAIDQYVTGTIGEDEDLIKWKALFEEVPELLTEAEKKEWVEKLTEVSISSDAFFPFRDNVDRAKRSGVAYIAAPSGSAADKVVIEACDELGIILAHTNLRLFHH
UniProt P30837: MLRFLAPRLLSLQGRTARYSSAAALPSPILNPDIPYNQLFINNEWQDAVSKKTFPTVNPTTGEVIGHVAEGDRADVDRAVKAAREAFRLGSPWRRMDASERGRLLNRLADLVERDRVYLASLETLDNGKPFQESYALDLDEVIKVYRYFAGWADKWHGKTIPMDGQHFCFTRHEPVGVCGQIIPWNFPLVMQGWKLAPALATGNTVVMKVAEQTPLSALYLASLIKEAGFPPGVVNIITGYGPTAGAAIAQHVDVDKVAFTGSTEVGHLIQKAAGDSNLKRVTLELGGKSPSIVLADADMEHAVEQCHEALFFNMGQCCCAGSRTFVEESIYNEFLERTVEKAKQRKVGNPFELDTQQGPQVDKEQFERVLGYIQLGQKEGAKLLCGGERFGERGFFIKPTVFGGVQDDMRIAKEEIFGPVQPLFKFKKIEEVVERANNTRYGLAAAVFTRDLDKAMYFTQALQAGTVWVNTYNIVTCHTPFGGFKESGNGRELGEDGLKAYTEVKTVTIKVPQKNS
UniProt P36873, whole entry, looked up: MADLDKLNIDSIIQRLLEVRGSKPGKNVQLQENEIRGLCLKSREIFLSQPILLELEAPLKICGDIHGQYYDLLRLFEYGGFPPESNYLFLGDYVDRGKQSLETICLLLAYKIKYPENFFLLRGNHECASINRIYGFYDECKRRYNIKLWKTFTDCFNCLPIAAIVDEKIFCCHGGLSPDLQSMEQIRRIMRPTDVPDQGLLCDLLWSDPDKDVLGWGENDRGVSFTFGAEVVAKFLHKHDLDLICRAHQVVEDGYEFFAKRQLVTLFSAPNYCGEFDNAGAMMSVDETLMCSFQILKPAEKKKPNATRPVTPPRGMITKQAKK
UniProt P36405: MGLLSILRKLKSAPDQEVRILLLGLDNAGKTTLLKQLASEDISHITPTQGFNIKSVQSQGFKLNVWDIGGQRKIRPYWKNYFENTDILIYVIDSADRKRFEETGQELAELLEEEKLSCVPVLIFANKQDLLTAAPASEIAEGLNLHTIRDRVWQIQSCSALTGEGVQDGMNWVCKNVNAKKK

Compound: COC(=O)C#Cc1ccccc1 [methyl 3-phenylpropiolate]
Assay: log2 ratio of iodoacetamide-alkyne labeling of the cysteine site, DMSO over compound (competition); higher = stronger covalent engagement of the cysteine by the compound, active = 1 or more
Details: 500 µM; treatment time 1 h; system: HEK293T cell lysate
Outline: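 HEK293T lysate at 2 mg/mL was treated with vehicle or electrophile (500 µM) for 1 h at ambient temperature, then labelled with iodoacetamide alkyne (1 h), clicked to sCIP-TMT reagents, pooled, digested with trypsin overnight at 37 °C, enriched on streptavidin and eluted with acid. Peptides were analysed by Orbitrap Eclipse LC-MS/MS with FAIMS and quantified in FragPipe, using duplicate channels and three replicates, with cysteines quantified in only one replicate excluded. The log2 competition ratio for each cysteine is the mean control-channel reporter intensity divided by the mean compound-channel reporter intensity.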

Target | log2 ratio of iodoacetamide-alkyne labeling
TTK C284 (UniProt P33981) | inactive: 0.53
TTK C322 (UniProt P33981) | active: 1.29
NUP62 C475 (UniProt P37198) | inactive: 0.206
S100A11 C91 (UniProt P31949) | inactive: 0.149
GTF2H1 C506 (UniProt P32780) | inactive: 0.367
IARS C87 (UniProt P41252) | inactive: 0.143
FUS C428 (UniProt P35637) | inactive: -0.0568
STIP1 C417 (UniProt P31948) | inactive: -0.182
UniProt P42126_C173 | inactive: 0.0263
PSMC2 C377 (UniProt P35998) | inactive: 0.299
DNAJA1 C149 (UniProt P31689) | inactive: 0.14
ABCC1 C730 (UniProt P33527) | inactive: 0.332
MDH2 C93 (UniProt P40926) | inactive: 0.117
RPL22 C25 (UniProt P35268) | inactive: -0.0696
NCAPD3 C1389 (UniProt P42695) | inactive: -0.0173
MPI C309 (UniProt P34949) | inactive: -0.0967
MYH10 C1238 (UniProt P35580) | inactive: 0.111
MYH10 C382 (UniProt P35580) | inactive: 0.27
MCM5 C207 (UniProt P33992) | inactive: 0.811

Looked up one by one from the list above, 2 records:
Target | log2 ratio of iodoacetamide-alkyne labeling
FUS C428 (UniProt P35637) | inactive: -0.0568
NCAPD3 C1389 (UniProt P42695) | inactive: -0.0173

Next part

Target | log2 ratio of iodoacetamide-alkyne labeling
MATR3 C563 (UniProt P43243) | inactive: 0.00502
LRPPRC C863 (UniProt P42704) | inactive: -0.00586
SLC19A1 C580 (UniProt P41440) | inactive: 0.634
HMGCL C323 (UniProt P35914) | inactive: 0.229
LRPPRC C208 (UniProt P42704) | inactive: 0.123
ACAA2 C287 (UniProt P42765) | inactive: 0.344
ATIC C325 (UniProt P31939) | inactive: -0.00411
IARS C526 (UniProt P41252) | inactive: 0.0745
POLR2B C837 (UniProt P30876) | inactive: 0.523
CA8 C266 (UniProt P35219) | inactive: 0.035
RFC2 C171 (UniProt P35250) | inactive: 0.188
ALDH1B1 C169 (UniProt P30837) | inactive: 0.454
PPP1CC C127 (UniProt P36873) | inactive: 0.00134
CASP3 C170 (UniProt P42574) | inactive: 0.259
ARL3 C118 (UniProt P36405) | inactive: 0.684
AKT2 C124 (UniProt P31751) | inactive: 0.434
EIF1 C69 (UniProt P41567) | inactive: 0.0567
UniProt P42677_C77 | active: 1.73
